Measured values taken from publication PMC4957287.

The chains behind the UniProt entries cited, without tags or fusion partners. Where a name states a change or a piece, a line headed by the entry shows the natural chain unless it says otherwise. Residues count along the entry.
UniProt Q10589, residues 1-161: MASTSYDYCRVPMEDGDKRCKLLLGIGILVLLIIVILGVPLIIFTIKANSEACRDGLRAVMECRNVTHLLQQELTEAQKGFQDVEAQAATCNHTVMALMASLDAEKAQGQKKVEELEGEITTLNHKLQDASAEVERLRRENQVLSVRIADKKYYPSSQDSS
UniProt O95831: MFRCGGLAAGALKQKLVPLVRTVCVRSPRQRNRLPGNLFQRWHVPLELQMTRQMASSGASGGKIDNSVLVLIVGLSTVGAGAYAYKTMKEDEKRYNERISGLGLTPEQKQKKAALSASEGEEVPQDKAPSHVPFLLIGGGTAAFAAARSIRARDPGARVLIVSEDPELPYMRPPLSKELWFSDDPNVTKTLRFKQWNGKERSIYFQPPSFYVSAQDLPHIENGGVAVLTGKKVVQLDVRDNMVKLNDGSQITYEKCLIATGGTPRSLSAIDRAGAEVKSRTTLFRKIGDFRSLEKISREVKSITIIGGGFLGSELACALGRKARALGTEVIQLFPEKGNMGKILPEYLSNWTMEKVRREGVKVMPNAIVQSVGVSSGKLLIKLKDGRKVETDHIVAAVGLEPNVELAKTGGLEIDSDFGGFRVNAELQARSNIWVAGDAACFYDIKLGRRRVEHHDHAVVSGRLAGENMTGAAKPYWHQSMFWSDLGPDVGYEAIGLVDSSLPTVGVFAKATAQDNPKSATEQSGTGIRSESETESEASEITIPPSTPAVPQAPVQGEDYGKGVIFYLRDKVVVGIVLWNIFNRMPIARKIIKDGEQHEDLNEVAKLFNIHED

Biological target: CD317 (human (endogenous in Hela)) (UniProt Q10589)
Experiment: co-IP; Hela cells cultured in normal or serum-deprivation condition for 24 h; lysates immunoprecipitated with anti-CD317 or control Ig; Western blot of precipitates and lysates

apoptosis-inducing factor (from UniProt O95831)
binding: no binding

These are yes or no findings as the source states them, for the method shown. Binding seen in cells or lysates may run through a third protein.
